No constants are given. Whether binding was seen depends on the method and setting. Binding seen in cells or lysates may run through a third protein. Some binding calls cover weakened binding; strength is not graded here.

Chains of the proteins cited; added tags and fusions are not shown.
UniProt O60260: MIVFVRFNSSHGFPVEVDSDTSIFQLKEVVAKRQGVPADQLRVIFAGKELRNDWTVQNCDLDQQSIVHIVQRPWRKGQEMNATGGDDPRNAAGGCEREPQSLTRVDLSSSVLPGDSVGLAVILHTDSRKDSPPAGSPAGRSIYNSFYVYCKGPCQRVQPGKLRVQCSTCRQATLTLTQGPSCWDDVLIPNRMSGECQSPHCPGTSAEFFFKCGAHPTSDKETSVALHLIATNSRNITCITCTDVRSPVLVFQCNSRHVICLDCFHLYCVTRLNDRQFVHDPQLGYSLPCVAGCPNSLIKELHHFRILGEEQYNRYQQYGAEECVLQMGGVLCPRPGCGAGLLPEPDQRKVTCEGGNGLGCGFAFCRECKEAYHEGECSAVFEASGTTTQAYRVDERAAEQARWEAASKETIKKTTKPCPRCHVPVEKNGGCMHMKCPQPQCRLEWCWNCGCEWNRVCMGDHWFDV
UniProt Q14457: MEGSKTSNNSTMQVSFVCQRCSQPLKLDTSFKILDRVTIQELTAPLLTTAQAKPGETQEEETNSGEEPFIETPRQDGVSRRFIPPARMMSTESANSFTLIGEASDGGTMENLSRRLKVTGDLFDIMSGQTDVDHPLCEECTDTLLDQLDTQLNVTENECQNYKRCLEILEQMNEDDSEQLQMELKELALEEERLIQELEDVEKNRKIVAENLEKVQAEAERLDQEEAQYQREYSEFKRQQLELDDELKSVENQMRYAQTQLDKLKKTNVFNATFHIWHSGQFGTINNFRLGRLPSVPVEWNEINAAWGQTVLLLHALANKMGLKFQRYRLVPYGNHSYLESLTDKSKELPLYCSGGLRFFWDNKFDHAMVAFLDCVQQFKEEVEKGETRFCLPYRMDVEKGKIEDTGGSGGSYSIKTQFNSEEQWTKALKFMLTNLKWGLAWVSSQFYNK
UniProt O88597: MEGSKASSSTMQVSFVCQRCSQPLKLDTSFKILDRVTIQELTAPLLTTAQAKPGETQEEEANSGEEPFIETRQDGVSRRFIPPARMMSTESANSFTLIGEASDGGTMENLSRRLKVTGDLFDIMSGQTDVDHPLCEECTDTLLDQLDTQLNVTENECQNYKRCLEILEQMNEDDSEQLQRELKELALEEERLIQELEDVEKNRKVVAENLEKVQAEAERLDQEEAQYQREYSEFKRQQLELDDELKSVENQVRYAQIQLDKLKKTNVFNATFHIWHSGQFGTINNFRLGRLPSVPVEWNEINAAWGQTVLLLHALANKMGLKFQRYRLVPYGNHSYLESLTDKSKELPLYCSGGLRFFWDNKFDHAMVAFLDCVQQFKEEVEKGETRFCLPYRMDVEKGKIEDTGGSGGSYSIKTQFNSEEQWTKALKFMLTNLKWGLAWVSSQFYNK

Assay [1] addresses PARK2 (Parkinson disease (autosomal recessive, juvenile) 2), human, endogenous in MRC-5 fibroblasts (human (endogenous in MRC-5)) (UniProt O60260). Put plainly: co-IP; endogenous proteins in fibroblast lysates (NIH/3T3 and MRC-5); IP lysis buffer 50 mM Tris, 1 mM EDTA, 0.5% NP-40, 150 mM NaCl, 10% glycerol, 1 mM PMSF; IP overnight at 4 °C with anti-PARK2 or anti-BECN1 monoclonal antibody and protein A/G agarose beads, control IgG as negative control; Western blot. (In western blotting, separated proteins are transferred to a membrane and probed.)

Assay [2] addresses T1, PARK2 (Parkinson disease (autosomal recessive, juvenile) 2), mouse, endogenous in NIH/3T3 fibroblasts (mouse (endogenous in NIH/3T3)) (UniProt Q9WVS6).
T1 sequence: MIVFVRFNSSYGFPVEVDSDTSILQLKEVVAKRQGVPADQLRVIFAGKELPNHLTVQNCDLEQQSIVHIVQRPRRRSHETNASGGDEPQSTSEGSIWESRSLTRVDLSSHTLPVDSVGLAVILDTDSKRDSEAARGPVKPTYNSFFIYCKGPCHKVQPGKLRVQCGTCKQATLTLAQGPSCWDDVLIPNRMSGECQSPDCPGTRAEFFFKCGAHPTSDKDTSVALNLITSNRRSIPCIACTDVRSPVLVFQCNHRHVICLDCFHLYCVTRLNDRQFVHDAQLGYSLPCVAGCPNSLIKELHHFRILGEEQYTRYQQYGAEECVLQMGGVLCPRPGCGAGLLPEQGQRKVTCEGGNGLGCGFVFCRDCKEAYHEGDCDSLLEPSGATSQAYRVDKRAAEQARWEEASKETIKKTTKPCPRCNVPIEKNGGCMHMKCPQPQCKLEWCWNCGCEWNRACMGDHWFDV
The assay is described as above.

In the case of “BECN1 (Beclin 1, autophagy-related), human, endogenous in MRC-5 fibroblasts (from UniProt Q14457 1-450)”, in assay [1], the binding result is “binds”. With “BECN1 (Beclin 1, autophagy-related), mouse, endogenous in NIH/3T3 fibroblasts (from UniProt O88597 1-448)”, the binding result in assay [2] was “binds”.

Source of the values: publication PMC5713326.
